This is one part of the list.
Compound: Cc1cc(ccc1-c1ccccc1)C(=O)N1CCCN(CC1)C(=O)CCl [compound 10]
Assay: probe-labelled cysteine peptide fold change vs DMSO (competition) (log2 fold change); higher = less target engagement (more negative = stronger competition)
Conditions: THP-1, incubation time: 4 h
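Note: competitive profiling in live THP-1 cells: cysteine peptides tagged with an iodoacetamide desthiobiotin (IA-DTB) probe, intensity after compound treatment relative to DMSO-treated cells.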

Amino acid sequences for entries named in this document (tags omitted). A change or cut given only in a name is not applied to a line headed by its entry.
UniProt Q96KM6: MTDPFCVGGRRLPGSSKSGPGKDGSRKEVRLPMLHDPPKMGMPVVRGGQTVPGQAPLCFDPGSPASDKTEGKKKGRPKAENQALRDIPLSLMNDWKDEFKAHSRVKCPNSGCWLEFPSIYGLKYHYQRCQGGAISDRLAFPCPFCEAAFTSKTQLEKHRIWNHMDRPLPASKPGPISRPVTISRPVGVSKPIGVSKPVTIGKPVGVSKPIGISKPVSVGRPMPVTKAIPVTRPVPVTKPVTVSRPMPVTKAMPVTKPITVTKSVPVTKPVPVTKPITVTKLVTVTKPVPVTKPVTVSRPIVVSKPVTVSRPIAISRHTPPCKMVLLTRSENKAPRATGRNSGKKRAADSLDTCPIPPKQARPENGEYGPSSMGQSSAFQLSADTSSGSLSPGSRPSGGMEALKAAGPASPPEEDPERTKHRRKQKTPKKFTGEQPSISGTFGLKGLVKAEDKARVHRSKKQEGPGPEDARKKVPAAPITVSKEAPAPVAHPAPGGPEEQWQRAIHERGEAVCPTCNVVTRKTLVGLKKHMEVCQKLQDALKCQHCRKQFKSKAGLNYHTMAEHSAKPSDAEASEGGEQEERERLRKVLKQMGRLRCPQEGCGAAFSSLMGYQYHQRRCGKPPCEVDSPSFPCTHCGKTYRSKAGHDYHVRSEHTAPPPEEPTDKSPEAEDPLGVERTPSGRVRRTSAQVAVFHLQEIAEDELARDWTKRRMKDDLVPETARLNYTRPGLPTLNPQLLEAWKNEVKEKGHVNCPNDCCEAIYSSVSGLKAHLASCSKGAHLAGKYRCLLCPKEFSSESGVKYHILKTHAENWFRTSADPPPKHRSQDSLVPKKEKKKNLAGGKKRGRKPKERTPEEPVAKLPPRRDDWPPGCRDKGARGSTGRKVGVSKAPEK
UniProt Q969S3: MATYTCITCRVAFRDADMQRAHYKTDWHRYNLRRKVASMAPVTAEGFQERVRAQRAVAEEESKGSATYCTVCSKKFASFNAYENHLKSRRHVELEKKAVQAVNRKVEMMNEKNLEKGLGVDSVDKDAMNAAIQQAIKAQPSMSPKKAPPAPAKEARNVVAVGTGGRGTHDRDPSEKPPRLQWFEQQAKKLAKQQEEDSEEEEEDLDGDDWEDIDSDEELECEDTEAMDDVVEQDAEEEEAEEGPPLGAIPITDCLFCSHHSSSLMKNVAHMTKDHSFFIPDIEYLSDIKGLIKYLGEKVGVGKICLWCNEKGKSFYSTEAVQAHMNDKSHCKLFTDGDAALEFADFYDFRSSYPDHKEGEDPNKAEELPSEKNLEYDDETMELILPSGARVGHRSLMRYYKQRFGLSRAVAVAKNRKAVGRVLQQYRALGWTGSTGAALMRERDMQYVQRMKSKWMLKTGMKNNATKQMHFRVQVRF
UniProt Q5VV52: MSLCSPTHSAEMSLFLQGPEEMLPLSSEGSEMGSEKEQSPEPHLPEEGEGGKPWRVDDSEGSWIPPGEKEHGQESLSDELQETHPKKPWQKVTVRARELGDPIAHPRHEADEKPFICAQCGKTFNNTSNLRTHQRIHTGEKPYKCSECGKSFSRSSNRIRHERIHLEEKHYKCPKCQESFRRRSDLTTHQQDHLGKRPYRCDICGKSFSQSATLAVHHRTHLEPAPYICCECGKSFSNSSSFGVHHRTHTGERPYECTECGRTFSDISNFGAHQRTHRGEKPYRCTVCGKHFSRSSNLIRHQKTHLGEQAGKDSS
UniProt O75362: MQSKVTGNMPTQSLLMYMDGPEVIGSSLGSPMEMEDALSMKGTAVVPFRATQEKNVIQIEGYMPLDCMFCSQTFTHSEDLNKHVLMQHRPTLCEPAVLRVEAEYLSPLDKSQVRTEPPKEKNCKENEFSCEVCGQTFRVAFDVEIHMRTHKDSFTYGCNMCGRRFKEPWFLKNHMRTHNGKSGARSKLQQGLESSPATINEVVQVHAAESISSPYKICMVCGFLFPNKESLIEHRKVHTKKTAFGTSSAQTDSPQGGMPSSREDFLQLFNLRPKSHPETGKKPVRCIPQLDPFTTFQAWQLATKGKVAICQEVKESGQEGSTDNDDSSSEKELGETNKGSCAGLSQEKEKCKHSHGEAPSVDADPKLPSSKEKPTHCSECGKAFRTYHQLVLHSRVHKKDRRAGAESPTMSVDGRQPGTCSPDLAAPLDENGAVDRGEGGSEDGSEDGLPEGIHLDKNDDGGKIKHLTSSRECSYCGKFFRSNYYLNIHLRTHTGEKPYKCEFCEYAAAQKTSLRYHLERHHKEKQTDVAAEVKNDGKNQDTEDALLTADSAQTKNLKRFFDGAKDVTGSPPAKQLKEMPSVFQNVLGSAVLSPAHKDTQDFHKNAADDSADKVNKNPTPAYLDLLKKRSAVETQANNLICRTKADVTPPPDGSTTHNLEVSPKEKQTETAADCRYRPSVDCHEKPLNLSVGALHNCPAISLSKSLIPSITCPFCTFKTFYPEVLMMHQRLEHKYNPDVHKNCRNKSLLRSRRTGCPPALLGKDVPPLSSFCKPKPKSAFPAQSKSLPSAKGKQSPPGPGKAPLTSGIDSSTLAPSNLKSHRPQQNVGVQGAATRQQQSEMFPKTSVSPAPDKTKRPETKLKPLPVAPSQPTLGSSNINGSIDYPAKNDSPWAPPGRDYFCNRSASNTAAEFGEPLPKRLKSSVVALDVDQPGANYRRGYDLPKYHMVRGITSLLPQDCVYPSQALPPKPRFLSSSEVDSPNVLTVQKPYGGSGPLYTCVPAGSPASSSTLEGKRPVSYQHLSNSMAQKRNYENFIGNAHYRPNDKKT
UniProt Q14202: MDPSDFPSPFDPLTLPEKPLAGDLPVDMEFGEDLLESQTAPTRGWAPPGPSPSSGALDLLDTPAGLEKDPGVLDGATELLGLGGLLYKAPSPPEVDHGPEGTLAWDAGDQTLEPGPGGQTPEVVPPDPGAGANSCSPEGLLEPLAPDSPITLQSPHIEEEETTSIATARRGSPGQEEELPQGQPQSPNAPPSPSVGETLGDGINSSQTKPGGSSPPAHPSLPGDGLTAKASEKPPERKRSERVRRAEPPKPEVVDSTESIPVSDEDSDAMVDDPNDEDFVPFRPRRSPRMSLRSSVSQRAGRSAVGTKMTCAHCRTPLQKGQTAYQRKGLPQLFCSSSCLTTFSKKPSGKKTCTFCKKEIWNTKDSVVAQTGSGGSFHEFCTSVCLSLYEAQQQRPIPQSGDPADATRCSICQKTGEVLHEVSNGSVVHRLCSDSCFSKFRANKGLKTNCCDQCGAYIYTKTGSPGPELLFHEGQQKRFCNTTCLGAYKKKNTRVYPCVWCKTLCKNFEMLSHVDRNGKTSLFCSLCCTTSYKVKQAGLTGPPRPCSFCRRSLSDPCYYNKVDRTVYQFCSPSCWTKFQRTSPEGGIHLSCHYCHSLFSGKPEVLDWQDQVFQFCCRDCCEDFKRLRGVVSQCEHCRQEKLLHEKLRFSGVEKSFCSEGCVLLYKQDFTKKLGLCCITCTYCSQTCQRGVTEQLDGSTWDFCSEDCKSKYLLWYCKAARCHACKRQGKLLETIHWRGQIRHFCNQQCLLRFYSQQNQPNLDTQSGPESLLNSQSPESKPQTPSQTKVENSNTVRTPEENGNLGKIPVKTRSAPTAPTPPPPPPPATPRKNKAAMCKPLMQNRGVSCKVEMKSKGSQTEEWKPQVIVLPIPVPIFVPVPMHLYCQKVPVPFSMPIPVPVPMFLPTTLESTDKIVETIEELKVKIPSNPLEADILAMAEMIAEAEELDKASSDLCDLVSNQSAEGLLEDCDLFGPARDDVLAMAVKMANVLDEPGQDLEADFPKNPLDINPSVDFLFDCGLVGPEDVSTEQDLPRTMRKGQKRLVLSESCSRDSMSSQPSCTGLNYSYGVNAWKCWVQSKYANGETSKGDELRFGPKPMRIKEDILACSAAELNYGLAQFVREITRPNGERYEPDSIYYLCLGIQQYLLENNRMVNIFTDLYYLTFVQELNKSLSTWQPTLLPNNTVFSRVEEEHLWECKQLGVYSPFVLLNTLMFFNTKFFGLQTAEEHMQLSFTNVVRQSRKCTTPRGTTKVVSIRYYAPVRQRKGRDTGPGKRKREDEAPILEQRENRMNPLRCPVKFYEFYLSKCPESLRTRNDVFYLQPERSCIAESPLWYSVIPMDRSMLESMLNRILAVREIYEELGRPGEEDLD
UniProt Q96GC6: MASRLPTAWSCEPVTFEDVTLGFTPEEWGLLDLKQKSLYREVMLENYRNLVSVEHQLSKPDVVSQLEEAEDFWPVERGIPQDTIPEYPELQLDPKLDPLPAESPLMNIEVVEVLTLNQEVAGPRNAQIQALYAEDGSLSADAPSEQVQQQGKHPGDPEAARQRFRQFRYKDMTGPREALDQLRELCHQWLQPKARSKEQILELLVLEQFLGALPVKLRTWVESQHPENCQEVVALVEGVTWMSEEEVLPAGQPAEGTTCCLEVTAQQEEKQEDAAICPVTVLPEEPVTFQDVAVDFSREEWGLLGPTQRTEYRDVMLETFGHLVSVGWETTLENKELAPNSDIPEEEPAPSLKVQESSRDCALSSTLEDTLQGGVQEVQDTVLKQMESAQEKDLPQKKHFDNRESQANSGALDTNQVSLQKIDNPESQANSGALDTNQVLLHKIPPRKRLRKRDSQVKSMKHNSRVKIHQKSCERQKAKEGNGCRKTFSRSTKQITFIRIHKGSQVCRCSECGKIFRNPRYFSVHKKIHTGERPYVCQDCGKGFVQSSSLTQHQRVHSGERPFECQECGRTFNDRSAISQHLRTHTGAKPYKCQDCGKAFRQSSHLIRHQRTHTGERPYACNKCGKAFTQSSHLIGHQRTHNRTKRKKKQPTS
UniProt Q92610: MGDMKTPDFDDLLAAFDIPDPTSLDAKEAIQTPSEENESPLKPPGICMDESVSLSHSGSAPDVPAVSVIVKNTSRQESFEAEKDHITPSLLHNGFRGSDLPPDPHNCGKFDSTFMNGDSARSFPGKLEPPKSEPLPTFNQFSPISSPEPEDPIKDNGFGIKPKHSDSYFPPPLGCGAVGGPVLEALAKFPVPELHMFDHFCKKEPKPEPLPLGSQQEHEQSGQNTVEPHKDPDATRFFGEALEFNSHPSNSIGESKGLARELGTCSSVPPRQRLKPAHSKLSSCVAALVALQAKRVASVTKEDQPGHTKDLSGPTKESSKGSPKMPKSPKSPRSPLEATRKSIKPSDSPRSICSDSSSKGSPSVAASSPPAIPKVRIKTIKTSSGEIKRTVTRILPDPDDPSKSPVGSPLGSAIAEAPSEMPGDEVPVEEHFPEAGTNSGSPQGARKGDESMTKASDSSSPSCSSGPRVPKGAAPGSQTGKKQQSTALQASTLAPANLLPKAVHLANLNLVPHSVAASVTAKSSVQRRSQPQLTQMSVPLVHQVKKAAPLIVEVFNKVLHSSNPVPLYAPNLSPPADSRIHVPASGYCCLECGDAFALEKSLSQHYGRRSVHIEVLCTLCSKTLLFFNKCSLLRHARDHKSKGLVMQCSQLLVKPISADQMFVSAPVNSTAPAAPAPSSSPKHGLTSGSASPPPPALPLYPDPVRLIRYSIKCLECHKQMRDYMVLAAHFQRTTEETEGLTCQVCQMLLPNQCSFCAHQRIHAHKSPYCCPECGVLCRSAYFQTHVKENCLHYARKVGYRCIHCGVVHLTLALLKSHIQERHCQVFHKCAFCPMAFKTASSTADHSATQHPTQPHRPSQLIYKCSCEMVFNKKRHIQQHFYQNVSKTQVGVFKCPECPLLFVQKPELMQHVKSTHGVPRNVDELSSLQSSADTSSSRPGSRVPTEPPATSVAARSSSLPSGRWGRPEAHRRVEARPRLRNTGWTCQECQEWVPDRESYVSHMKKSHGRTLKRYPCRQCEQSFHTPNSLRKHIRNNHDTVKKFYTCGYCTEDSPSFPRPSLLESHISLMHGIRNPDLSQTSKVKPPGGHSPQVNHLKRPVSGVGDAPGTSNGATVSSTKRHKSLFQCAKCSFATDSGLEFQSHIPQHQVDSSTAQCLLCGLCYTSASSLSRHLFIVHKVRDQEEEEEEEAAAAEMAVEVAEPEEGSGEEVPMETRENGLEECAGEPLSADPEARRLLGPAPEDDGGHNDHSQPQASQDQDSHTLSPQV
UniProt P47974: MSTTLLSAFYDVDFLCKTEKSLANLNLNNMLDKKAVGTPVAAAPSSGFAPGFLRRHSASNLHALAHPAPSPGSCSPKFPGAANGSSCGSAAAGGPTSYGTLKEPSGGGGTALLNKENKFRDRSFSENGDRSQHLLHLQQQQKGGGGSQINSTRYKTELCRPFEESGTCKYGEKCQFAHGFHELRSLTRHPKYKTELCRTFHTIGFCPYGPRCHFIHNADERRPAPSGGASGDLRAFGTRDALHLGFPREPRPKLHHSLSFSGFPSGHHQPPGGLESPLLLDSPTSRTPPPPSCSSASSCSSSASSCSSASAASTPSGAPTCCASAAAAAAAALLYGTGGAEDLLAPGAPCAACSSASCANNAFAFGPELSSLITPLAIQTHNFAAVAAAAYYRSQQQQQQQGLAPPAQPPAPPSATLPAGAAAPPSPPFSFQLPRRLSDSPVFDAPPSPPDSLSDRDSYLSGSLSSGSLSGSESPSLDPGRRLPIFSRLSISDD

| Target | probe-labelled cysteine peptide fold change (10 µM) | probe-labelled cysteine peptide fold change (50 µM) |
| --- | --- | --- |
| ZNF644_Q9H582_450_HLNVPRPYACR (UniProt Q9H582) | 0.184 | 0.248 |
| ZNF512B_Q96KM6_353_AADSLDTCPIPPK (UniProt Q96KM6) | 0.0974 | -0.351 |
| ZNF622_Q969S3_69+72_GSATYCTVCSK (UniProt Q969S3) | 0.0753 | 0.0378 |
| ZNF691_Q5VV52_260_THTGERPYECTECGR (UniProt Q5VV52) | 0.396 | 1.19 |
| ZMYND8_Q9ULU4_130_LTSEPEGDWFCPECEK (UniProt Q9ULU4) | 0.0029 | -0.255 |
| ZNF638_Q14966_1933_AGFFCPICSLFYSGEK (UniProt Q14966) | 0.108 | 0.107 |
| ZNF217_O75362_93_HVLMQHRPTLCEPAVLR (UniProt O75362) | -0.0938 | 0.0659 |
| ZMYM3_Q14202_1106_IKEDILACSAAELNYGLAQFVR (UniProt Q14202) | -0.0828 | -0.268 |
| ZNF691_Q5VV52_232_THLEPAPYICCECGK (UniProt Q5VV52) | 0.127 | -0.851 |
| ZNF274_Q96GC6_361_DCALSSTLEDTLQGGVQEVQDTVLK (UniProt Q96GC6) | 0.16 | 0.202 |
| ZNF592_Q92610_265_ELGTCSSVPPR (UniProt Q92610) | 0.0424 | -0.225 |
| ZMYND11_Q15326_126_CLSDEFR (UniProt Q15326) | -0.00978 | 0.0128 |
| ZFP36L2_P47974_212_CHFIHNADER (UniProt P47974) | -0.142 | 0.376 |
| ZNF280C_Q8ND82_358_QNNESWENHTTCQHCYR (UniProt Q8ND82) | 0.182 | 0.258 |

Single values from the entries so far.
probe-labelled cysteine peptide fold change (50 µM) with ZMYM3_Q14202_1106_IKEDILACSAAELNYGLAQFVR (UniProt Q14202) is entered as -0.268
probe-labelled cysteine peptide fold change (50 µM) with ZNF217_O75362_93_HVLMQHRPTLCEPAVLR (UniProt O75362) is entered as 0.0659
